These are yes or no findings as the source states them, for the method shown. Sequences can lack the tags named with a protein.
Target: Mycobacterium tuberculosis SecA2 (unlabeled) (Mycobacterium tuberculosis strain H37Rv) (UniProt P9WGP3)
Test: SEC; Superdex 200 10/300 GL, 0.5 ml/min, 20 mM HEPES-KOH pH 7.5, 2 mM MgCl2, 50 mM arginine, high salt (300 mM KCl); protein 2-5 mg/ml; both purified

B1: Mycobacterium tuberculosis SecA2 (unlabeled) (natural protein)
chain: MVPKTTRAQPGRLSSRFWRLLGASTEKNRSRSLADVTASAEYDKEAADLSDEKLRKAAGLLNLDDLAESADIPQFLAIAREAAERRTGLRPFDVQLLGALRMLAGDVIEMATGEGKTLAGAIAAAGYALAGRHVHVVTINDYLARRDAEWMGPLLDAMGLTVGWITADSTPDERRTAYDRDVTYASVNEIGFDVLRDQLVTDVNDLVSPNPDVALIDEADSVLVDEALVPLVLAGTTHRETPRLEIIRLVAELVGDKDADEYFATDSDNRNVHLTEHGARKVEKALGGIDLYSEEHVGTTLTEVNVALHAHVLLQRDVHYIVRDDAVHLINASRGRIAQLQRWPDGLQAAVEAKEGIETTETGEVLDTITVQALINRYATVCGMTGTALAAGEQLRQFYQLGVSPIPPNKPNIREDEADRVYITTAAKNDGIVEHITEVHQRGQPVLVGTRDVAESEELHERLVRRGVPAVVLNAKNDAEEARVIAEAGKYGAVTVSTQMAGRGTDIRLGGSDEADHDRVAELGGLHVVGTGRHHTERLDNQLRGRAGRQGDPGSSVFFSSWEDDVVAANLDHNKLPMATDENGRIVSPRTGSLLDHAQRVAEGRLLDVHANTWRYNQLIAQQRAIIVERRNTLLRTVTAREELAELAPKRYEELSDKVSEERLETICRQIMLYHLDRGWADHLAYLADIRESIHLRALGRQNPLDEFHRMAVDAFASLAADAIEAAQQTFETANVLDHEPGLDLSKLARPTSTWTYMVNDNPLSDDTLSALSLPGVFR
notes: No tag; molecular mass 85 kDa on SDS-PAGE; also called PIP152
B1 was tested, and the binding was “no binding (condition: high salt buffer (300 mM KCl))”.

Source: publication PMC4457860, “In Vitro Interaction of the Housekeeping SecA1 with the Accessory SecA2 Protein of Mycobacterium tuberculosis” (PLoS ONE, 2015)
